Results as given in PubChem BioAssay AID2685 (National Center for Advancing Translational Sciences (NCATS), 2010).
The other results are listed elsewhere or left out. Shown are side measurements of this screen, not its main read-out; they come without a call. The list favours compounds with an active or inconclusive main result. The note in brackets gives the kind of curve behind each potency; many fits are weak.

Assay: qHTS Assay for Lipid Storage Modulators in Drosophila S3 Cells;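 as to cell number change: cells counted by Cell Tracker Red CMTPX staining in the red channel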
Conditions: BODIPY lipid droplet fluorescence, 18-24 h; for cell number change: measured here: cell count max response, cells fed with added oleic acid
How it was run: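 Drosophila S3 cells got compounds at several concentrations plus oleic acid (400 uM solution). Laser-scanning cytometry with 488 nm excitation read lipid droplets at 500-530 nm and cells at 575-640 nm. Percent activity was relative to 20 uM Triacsin C.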

[1] = measured here: cell number channel AC50, cells fed with added oleic acid
[2] = measured here: lipid fluorescence (Fed channel) AC50, cells fed with added oleic acid

| SMILES | cell number change | AC50 [1] | AC50 [2] |
| --- | --- | --- | --- |
| Cc1ccc2[nH]c3c(c2c1)CN(C(=O)CN1CCN(C(=O)c2ccco2)CC1)CC3 | -43.3% | 29.1 µM [falling, single point] | – |
| CCOc1ccccc1/C=C(/NC(=O)c1ccccc1)C(=O)NC(C)c1ccccc1 (configuration not stated) | -20.2% | 0.731 µM [rising, single point] | – |
| CCN1C(=O)CC(C(=O)Nc2ccc(F)cc2)SC1=Nc1ccc2c(c1)OCO2 (configuration not stated) | – | 0.82 µM [rising, full curve] | 1.84 µM [rising, full curve] |
| Cn1c(SCC(=O)Nc2ccc3c(c2)oc2ccccc23)nnc1-c1ccccc1 | -82.3% | 32.6 µM [falling, single point] | 32.6 µM [falling, single point] |
| CN(C)c1nc2n(c(=O)n1)CCO2 | 4.13% | – | – |
| O=C(CSc1nc(=O)n(CCCN2CCOCC2)c2c1CCCC2)Nc1cccc(F)c1 | -10% | – | – |
| Cc1ccc(-c2nnn(CC(=O)N(c3cccc(O)c3)C(C(=O)NC(C)(C)C)c3cccs3)n2)o1 (configuration not stated) | -48.7% | 29.1 µM [falling, single point] | 20.6 µM [rising, single point] |
| COc1cccc(/C=N/NC(=O)COc2cccc3cccnc23)c1O | -29.7% | 2.31 µM [rising, partial curve] | 1.46 µM [rising, partial curve, poor fit] |
| O=C(NC(=S)Nc1ccc(CN2CCOCC2)cc1)c1cc2ccccc2o1 | 16.8% | 6.51 µM [rising, single point] | 1.16 µM [rising, partial curve] |
| CC(C)NC(=O)C(=O)NCCc1ccc(Cl)cc1 | 47.5% | – | 3.66 µM [falling, single point] |
| CC(C)CN(C(=O)CN(C)C(=O)c1ccco1)c1c(N)n(CC(C)C)c(=O)[nH]c1=O | -39.5% | 0.411 µM [falling, full curve] | – |
| O=C(c1cccc(S(=O)(=O)Nc2ccc(F)cc2)c1)N1CCC1 | -9.07% | – | 18.4 µM [rising, partial curve, poor fit] |
| CC(C)(C)OC(=O)NC(CNCc1ccccc1)Cc1ccccc1 (configuration not stated) | -21% | – | 1.84 µM [falling, partial curve, poor fit] |
| Cc1c(Cl)cccc1NC(=O)[C@@]1(CC(=O)O)CC(/C=C/c2ccccc2)=NO1 | 12.4% | – | – |
| COc1ccccc1-c1nc(NC(C)=O)n[nH]1 | 3.73% | – | 0.366 µM [rising, full curve, poor fit] |
| CCOC(=O)Cc1csc(N/N=C\c2ccc(N(C)C)cc2)n1 | -18.1% | 4.61 µM [falling, single point] | 20.6 µM [rising, partial curve] |
| Cn1c(NCc2ccco2)nc2c1c(=O)n(Cc1ccc(Br)cc1)c(=O)n2C | -16.7% | – | 29.1 µM [falling, single point] |
| CC(C)C(=O)NC(c1ccccc1Cl)c1c(O)ccc2ccccc12 (configuration not stated) | -29.2% | – | 29.1 µM [falling, single point] |
| COc1cccc(-c2nc(-c3ccncc3)no2)c1 | 14.4% | – | 29.1 µM [rising, single point] |
| O=C(OCC#CCSc1nnc(-c2cccc3ccccc23)o1)c1ccc(Cl)cc1 | – | – | 0.164 µM [rising, full curve, poor fit] |

| SMILES | cell number change | AC50 [1] | AC50 [2] |
| --- | --- | --- | --- |
| COc1cc(NC2c3ncccc3C(=O)N2Cc2ccco2)cc(OC)c1 (configuration not stated) | -11.7% | – | – |
| CCOC(=O)c1ccc(Nc2nc(C)cc(C)n2)cc1 | 20.8% | – | 2.06 µM [rising, full curve, poor fit] |
| O=c1c2ccccc2nc2n1C(CSCc1cccc(C(F)(F)F)c1)CS2 (configuration not stated) | -39.5% | 9.2 µM [falling, partial curve] | 14.6 µM [falling, partial curve] |
| Cc1cnc(C)c(N2CCN(Cc3nc(-c4ccc(C)o4)oc3C)CC2)n1 | 15.6% | – | 29.1 µM [rising, single point] |
| COc1ccc(OC)c(NC(=O)C(CC(=O)O)Cc2ccc(Cl)cc2)c1 (configuration not stated) | 32.9% | – | – |
| COc1ccc(Cl)cc1N(CC(=O)Nc1ccccc1C(=O)NCc1ccco1)S(C)(=O)=O | 1.52% | – | – |
| CC(=O)Nc1cccc(OCc2cnc(Cl)s2)c1 | 2.44% | – | 0.116 µM [falling, full curve] |
| Cc1noc(C)c1C(=O)OCC(=O)NC1CCCCC1C (configuration not stated) | -0.214% | – | 0.291 µM [rising, full curve, poor fit] |
| Nc1ccc(-n2nnnc2-c2ccco2)cc1 | 30.4% | 9.2 µM [rising, partial curve] | 7.31 µM [rising, partial curve] |
| c1ccc(-c2nnc(-c3c[nH]c4ccccc34)nc2-c2ccccc2)cc1 | 1.78% | – | – |
| O=C(CNc1ccccc1N1CCCC1=O)Nc1cc(C(F)(F)F)ccc1-n1cncn1 | – | – | 0.92 µM [falling, partial curve] |
| Cc1ccc(NNC(=O)c2cc(C(C)(C)C)nn2Cc2ccccc2)cc1 | -29.7% | – | 29.1 µM [falling, single point] |
| CCc1ccc(Nc2nnc(SCC(=O)c3ccc4c(c3)NC(=O)CO4)s2)cc1 | -35.8% | 0.13 µM [falling, full curve] | 0.116 µM [falling, full curve] |
| CCN1CCCC(CO)(Cc2ccccc2)C1 (configuration not stated) | – | 3.66 µM [falling, single point] | – |
| Cc1cc(=O)oc2cc(OCC(=O)N3CCCc4ccccc43)ccc12 | 4.86% | – | 5.17 µM [rising, single point] |
| CCOc1cc(/C=N/Nc2ncnc(Cl)c2N)ccc1O | 12.3% | 0.103 µM [rising, full curve, poor fit] | 29.1 µM [rising, single point] |
| O=C(C1CCN(CCCc2ccccc2)CC1)N1CCCCC1 | 29% | – | 0.092 µM [rising, full curve, poor fit] |
| CC1CCCC(C)N1/N=C/c1ccccc1OC(F)F (configuration not stated) | -2.58% | 0.259 µM [falling, partial curve, poor fit] | 2.59 µM [falling, single point] |
| CC1CN(S(=O)(=O)c2cccc(C(=O)Nc3ccc(S(=O)(=O)NC4=NCCCCC4)cc3)c2)CC(C)O1 (configuration not stated) | -35.6% | 16.4 µM [falling, single point] | 5.8 µM [falling, partial curve] |
| C=CCn1c(C)nnc1SCC(=O)c1c(N)n(C2CC2)c(=O)[nH]c1=O | -28.1% | – | – |

Complete entries as entered above:
CC1CN(S(=O)(=O)c2cccc(C(=O)Nc3ccc(S(=O)(=O)NC4=NCCCCC4)cc3)c2)CC(C)O1 (configuration not stated) reads cell number change: -35.6%; AC50 [1]: 16.4 µM [falling, single point]; AC50 [2]: 5.8 µM [falling, partial curve]
CCOc1cc(/C=N/Nc2ncnc(Cl)c2N)ccc1O reads cell number change: 12.3%; AC50 [1]: 0.103 µM [rising, full curve, poor fit]; AC50 [2]: 29.1 µM [rising, single point]

Further structures.

| SMILES | cell number change | AC50 [1] | AC50 [2] |
| --- | --- | --- | --- |
| COc1ccc(-c2cn[nH]c2-c2ccc(OCc3ccc(F)cc3)cc2O)cc1OC | -46.7% | 29.1 µM [falling, single point] | 20.6 µM [falling, single point] |
| COc1ccccc1NC(=O)C(C)OC(=O)C(C)SCC(=O)Nc1ccc(C)cc1 (configuration not stated) | 4.59% | – | 0.00461 µM [rising, full curve, poor fit] |
| CCC(C)NC(=O)N[C@@H](CCSC)C(=O)OC (some centres not stated) | -19.5% | – | 1.3 µM [falling, full curve, poor fit] |
| Cn1c(SCC(=O)Nc2ccc3[nH]c(=O)[nH]c3c2)nnc1-c1ccccc1 | 8.42% | – | 13 µM [rising, partial curve, poor fit] |
| c1ccc2nc(-c3nc4ccccc4o3)ccc2c1 | -9.78% | – | 0.00461 µM [falling, full curve, poor fit] |
| CC(C)c1ccc(NC(=O)c2cc3c(=O)n(C)c4ccccc4c3n2C)cc1 | -2.32% | – | – |
| O=C(COc1ccccc1)Nc1c2c(nn1-c1ccc(F)cc1)CS(=O)(=O)C2 | 10% | – | 4.11 µM [rising, full curve, poor fit] |
| O=C(Nc1cccc(C(F)(F)F)c1)c1sc(Cl)nc1C(F)(F)F | – | – | 1.64 µM [falling, full curve] |
| CCOc1ccccc1NC(=O)C1(S(=O)(=O)c2ccc(Cl)cc2)CC1 | -21% | – | – |
| O=C(Nc1nnc(C2=COCCO2)o1)c1ccc(F)cc1 | – | – | 3.26 µM [falling, partial curve] |
| Cc1ccc(S(=O)(=O)Nc2nncs2)cc1 | -38.7% | 6.51 µM [falling, full curve, poor fit] | 2.06 µM [falling, full curve] |
| CC(C)C(NS(=O)(=O)c1ccc2c(c1)OCCO2)C(=O)NCCc1ccccn1 (configuration not stated) | -5.68% | – | – |
| O=C(Nc1ccc2c(c1)OCO2)c1ccc(Cl)nc1 | 50.4% | 11.6 µM [rising, single point] | 23.1 µM [rising, single point] |
| Cc1c(C(=O)NCCSCc2cccc(C(F)(F)F)c2)cnn1-c1ccc(Cl)cc1 | 7.79% | – | 0.366 µM [falling, full curve] |
| CC(C)c1ccc(N=c2c([N+](=O)[O-])nn(-c3ccc4c(c3)OCCO4)n2O)cc1 | -63.8% | 16.4 µM [falling, single point] | – |
| COCCSc1ccccc1C(=O)N1CCCC(C)C1 (configuration not stated) | 33% | – | 7.31 µM [falling, single point] |
| CN(CC1CCCN(CCc2ccc(Cl)cc2)C1)C(=O)C(=O)c1ccco1 (configuration not stated) | 34.2% | 18.4 µM [rising, single point] | – |
| COc1ccc(N2CCN(C(=O)Cn3nnc(-c4ccc(OC)c(OC)c4)n3)CC2)cc1 | -31.3% | 29.1 µM [falling, single point] | – |
| COc1cc(C(=O)Nc2cc(C(F)(F)F)ccc2Cl)cc(OC)c1OC | -33.7% | 13 µM [falling, single point] | 16.4 µM [falling, single point] |
